Library screening results

Source: ChEMBL document CHEMBL3988442, “University of Dundee, Small-Polar-MMV Screening Library” (2021).

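Viability assay of Plasmodium falciparum sporozoites; the read-out is not stated. The concentration is filed as 10 mM, unlikely as a test dose, so the dose is not known. The record gives no direction; compounds that gave an IC50 in retests scored well above the rest, so higher reads as lower viability. Strong results were mostly tested again. Of about 34,000 compounds tested this way, about 280 (0.84%) reached 50% or more in at least one test.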

Values are the deposited “Percent Effect”, in %. The controls that fix the scale are not given in the record; negative values are as filed. The compounds are a random part of those screened. Two or more numbers in one place are separate tests of the same structure; such repeats can differ widely.

SMILES	Percent Effect
Cc1ccsc1C(=O)NCc1cccnc1N(C)CCc1ccccn1	-5.441%
Cc1cccc(C(=O)N2CC(Cc3nccc4ccn(C)c34)C2)n1	24.28%
CC(C)c1ncncc1C(=O)N1CCN(Cc2cccnc2)CC1	-6.595%
COCCn1ccnc1C1CCCN(C(=O)CSc2nnc(C)o2)C1 (stereo not given)	11.33%
Cc1ccc(C(=O)N2CCC3(CC2)CC(NC(=O)C(C)C)CO3)cc1 (stereo not given)	16.08%
CN(CCCc1cc(-c2ccccc2)n[nH]1)C(=O)CCCn1cncn1	-6.927%
O=C(O)C(c1ccc2[nH]ccc2c1)N1CCOCC1 (stereo not given)	5.562%
COc1ccccc1OCCNCc1c(C(C)C)nn(C)c1N(C)C	11.56%
Cc1cnn(CC2CCCCN2C(=O)Cc2c(C)noc2Cl)c1 (stereo not given)	12.8%
Cc1ccc(=O)n(CC2(O)CCN(Cc3cnc(C)nc3)CC2)n1	0.1185%
O=S1(=O)[C@@H](c2ccccc2)[C@H](CO)CN1C1CC1	-10.81%
c1ccc(Cn2cncn2)c(CNCC2CNc3ccnn3C2)c1 (stereo not given)	8.34%
Nc1nc2nc(C3CCCN(C(=O)c4cnccn4)C3)ccc2s1 (stereo not given)	5.626%
[H][C@@]12CCN(Cc3ccccn3)C[C@@]1([H])O[C@H](C)C2	-18.19%
Cc1nc(C)n(CC(=O)N2CCCC(c3nc(C)n4c(C)csc34)C2)n1 (stereo not given)	-11.62%
CN(C)c1cc(C(=O)N2CCCCCC2)ccn1	5.047%
CC(C)c1cc(NC(=O)CN2CCc3cncnc3C2)on1	-5.887%
Cc1ccc(OCCCNC(=O)Cc2nc3ncccn3n2)cc1	9.232%
O=C(O)C(F)(F)F.O=C(O)C(F)(F)F.c1cncc(OCc2nnn3c2CN(Cc2ccsc2)CCC3)c1	-4.221%
CC(C)(C)C1CC(=O)Nc2c1cnn2Cc1ccco1 (stereo not given)	-10.45%
Cc1cncnc1C1CCN(C(=O)CN(C)C)CC1	4.795%
CN(C)Cc1nn(C)c2c1CCN(S(=O)(=O)c1cccs1)C2	-1.006%
CCS(=O)(=O)N1CCC2(CC(=O)N(c3ccccc3C)C2)C1 (stereo not given)	10.42%
Cc1nc(CN2CCCC(c3nc(C)n4c(C)c(C)sc34)C2)co1 (stereo not given)	18.51%
N#CCCN(Cc1cccnc1)C(=O)c1cc(Cl)c[nH]1	-10.53%
CC(=O)Nc1ccc(CNCc2cccnc2N(C)C)cc1	-6.685%
Cc1ccc(-n2ncc(C(=O)NC3CC(C)(C)NC(C)(C)C3)c2N)cc1	-13.96%
CS(=O)(=O)NC1CCN(C(=O)NCCc2ccccc2F)CC1	6.266%
C=C(C)CNc1nc(CS(=O)(=O)c2ccccc2)cs1	-9.989%
CN1Cc2cc(F)ccc2N(CC(C)(C)O)CCC1=O	-26.7%
Cl.Cl.OC(CN1CCN(Cc2ccc(F)cc2)CC1)C1CC1 (stereo not given)	-3.896%
O=C(CN1CCOC(Cn2cncn2)C1)NCc1cccs1 (stereo not given)	-3.485%
COc1ccc(CNCC2CC2)cc1F	-6.99%
O=C(CNc1ccc(OC2CCOC2)cc1)NCc1cccs1 (stereo not given)	11.64%
COc1cccc(S(=O)(=O)N2C[C@@H](O)[C@H](N(C)C)C2)c1	-2.935%
c1coc(-c2noc(CN3CCCC(Cn4cncn4)C3)n2)c1 (stereo not given)	6.409% & 11.76% & -4.552%
CCc1nnc2n1CCN(CCC(=O)Nc1cc(C)on1)C2	-8.027%
CN(C)C(=O)CCC(=O)N1CCC2(CC1)COC2	1.54%
O=C(C1CCCCN1Cc1nc(-c2ccco2)no1)N1CCCC1 (stereo not given)	2.924%
COCc1nc2cc(NCc3scnc3C)ccc2o1	4.72%
N#Cc1ccc(N2CCC3(CCC(=O)N3CCN3CCCC3)CC2)nc1.O=C(O)C(F)(F)F.O=C(O)C(F)(F)F	-8.439%
O=C(O)C(F)(F)F.[H][C@@]12COC[C@]1(C(=O)NC1CC(F)(F)C1)CN(Cc1ccccc1)C2	13.2%
O=C(CCc1cccs1)N1CCCCC1Cn1cccn1 (stereo not given)	-6.474%
Cc1nc(C2CCCN(C(=O)c3c[nH]c(C(C)C)n3)C2)no1 (stereo not given)	12.68%
CS(=O)(=O)N1CCCC12CCCN(S(=O)(=O)c1ccc(F)c(F)c1)C2 (stereo not given)	27.98%
CCc1ccc(C(NC(=O)CN(C)S(C)(=O)=O)C(C)(C)C)o1 (stereo not given)	-13.94%
[H][C@]12CC[C@@]3(N=C(C)N(CC4CC4)C3=O)[C@@]1([H])CN(S(=O)(=O)CC(C)C)C2	9.596%
CCOC(=O)N1CC(C)=C(C)CN1C(=O)Nc1ccc(Cl)c(Cl)c1	-3.923%

The last 4 entries again:

SMILES,Percent Effect
CS(=O)(=O)N1CCCC12CCCN(S(=O)(=O)c1ccc(F)c(F)c1)C2 (stereo not given),27.98%
CCc1ccc(C(NC(=O)CN(C)S(C)(=O)=O)C(C)(C)C)o1 (stereo not given),-13.94%
[H][C@]12CC[C@@]3(N=C(C)N(CC4CC4)C3=O)[C@@]1([H])CN(S(=O)(=O)CC(C)C)C2,9.596%
CCOC(=O)N1CC(C)=C(C)CN1C(=O)Nc1ccc(Cl)c(Cl)c1,-3.923%